# Some of these results come from one statement about several compounds together.
# Assays:
# [1] = tested on: human colorectal adenocarcinoma derived cell line HT-29; test: Cellular assay (checkpoint abrogation); format: cell-based; settings: HT-29 cells; 20 nM SN-38, then 300 nM nocodazole plus compound for 24 h; read-out: EC50 (50% decrease of phospho-Histone H3)
# chk1 = molecular target: T1, chk1 (Homo sapiens, UniProt O14757); test: Chk1 primary assays (AlphaScreen / ATP radiometric); format: biochemical; settings: assays of EXAMPLE i; 10 μM ATP, 30 minutes; AlphaScreen or ATP radiometric format not specified; read-out: IC50 against chk1
# T1 construct: Full length human mutant recombinant protein, histidine tagged; histidine tag; purchased Invitrogen PV3982; host or cells: insect cells
# T1 sequence (O14757 1-476): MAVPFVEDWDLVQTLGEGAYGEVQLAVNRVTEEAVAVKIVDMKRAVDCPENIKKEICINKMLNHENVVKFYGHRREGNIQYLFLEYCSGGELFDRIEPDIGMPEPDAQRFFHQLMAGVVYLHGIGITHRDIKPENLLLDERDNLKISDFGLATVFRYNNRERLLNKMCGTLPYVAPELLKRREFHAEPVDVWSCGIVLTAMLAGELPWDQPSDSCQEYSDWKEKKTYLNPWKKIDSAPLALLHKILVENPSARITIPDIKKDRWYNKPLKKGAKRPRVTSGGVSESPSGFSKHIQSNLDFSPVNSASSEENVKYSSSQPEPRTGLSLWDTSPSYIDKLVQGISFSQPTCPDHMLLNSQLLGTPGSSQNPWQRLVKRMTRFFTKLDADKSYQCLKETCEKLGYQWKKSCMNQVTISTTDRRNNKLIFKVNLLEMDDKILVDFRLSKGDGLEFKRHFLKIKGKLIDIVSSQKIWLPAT
SMILES,EC50 [1] [µM],IC50 (chk1) [µM]
"CN[C@H]1CCN(c2c(Cl)cnc3[nH]c4cnc(C#N)cc4c23)C1 [Example 53, (S)-3-Chloro-4-(3-(methylamino)pyrrolidin-1-yl)-9H-dipyrido[2,3-b;4′,3′-d]pyrrole-6-carbonitrile]",< 10,< 5
CNC[C@@H]1CN(c2ccnc3[nH]c4cnc(C#N)cc4c23)CCO1 [Example 22],< 10,< 5
"CCN1CCC(C)(COc2ccnc3[nH]c4cnc(C#N)cc4c23)CC1 [Example 65, 4-((1-ethyl-4-methylpiperidin-4-yl)methoxy)-9H-dipyrido[2,3-b;4′,3′-d]pyrrole-6-carbonitrile]",< 10,< 5
"CCNC1CCN(c2c(C#N)ncc3[nH]c4ncccc4c23)CC1 [Example 128, 5-(4-Ethylamino-piperidin-1-yl)-9H-dipyrido[2,3-b;4′,3′-d]pyrrole-6-carbonitrile]",< 10,< 5
"N#Cc1cc2c(cn1)[nH]c1nccc(OC[C@H]3COCCN3)c12 [Example 15, (R)-4-(morpholin-3-ylmethoxy)-9H-dipyrido[2,3-b;4′,3′-d]pyrrole-6-carbonitrile]",< 10,< 5
"N#Cc1ncc2[nH]c3ncccc3c2c1N1CCC(N2CC[C@H](F)C2)CC1 [Example 135, 5-[4-((S)-3-Fluoro-pyrrolidin-1-yl)-piperidin-1-yl]-9H-dipyrido[2,3-b;4′,3′-d]pyrrole-6-carbonitrile]",< 10,< 5
